Measured values from patent publication US20220213181A1.
Results are given in words; binding and its absence hold for the method and conditions named. Some binding calls cover weakened binding; strength is not graded here. Where a sequence is shown, tags or fusion partners need not be part of it.

T1: Human ANGPTL4(26-161)-FLAG-His6-Avi (human)
T1 sequence (chain, biotin on the C-terminal Avi tag (BirA) where the protein is immobilised): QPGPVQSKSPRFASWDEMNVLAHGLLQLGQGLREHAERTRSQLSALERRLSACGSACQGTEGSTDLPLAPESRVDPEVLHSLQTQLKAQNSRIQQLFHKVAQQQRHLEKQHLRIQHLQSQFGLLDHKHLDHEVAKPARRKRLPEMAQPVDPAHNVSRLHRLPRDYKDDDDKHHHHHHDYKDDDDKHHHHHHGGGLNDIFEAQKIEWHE

B1: NEG278 (antibody, human IgG1, kappa, V domains shown)
VH: QVQLVQSGAEVKKPGASVKVSCKASAYTFTSSWMQWVRQAPGQGLEWMGEIDPSDNYANYNQKFQGRVTLTVDTSTSTAYMELSSLRSEDTAVYYCASGSYFSNFFDYWGQGTLVTVSS
VL: EIVMTQSPATLSVSPGERATLSCKASQDIGSNLNWLQQKPGQAPRRLIYAASVREPGIPARFSGSRSGSEYTLTISSLQSEDFAVYYCLQYASSPWTFGQGTKVEIKR
B2: NEG318 (antibody, human IgG1, kappa, V domains shown)
VH: QVQLVQSGAEVKKPGASVKVSCKASGYTFTSFWITWVRQAPGQGLEWMGDIYPGGATTNYNEKLQGRVTLTVDTSTSTAYMELRSLRSDDTAVYYCARSPPQVGPFDYWGQGTLVTVSS
VL: DIQMTQSPSSLSASVGDRVTITCQASDYIYHWLAWYQQKPGKAPKLLISGASSLETGVPSRFSGSGSGKDYTFTISSLQPEDIATYYCQQYWSIPWTFGQGTKLEIKR
B3: NEG319 (antibody, human IgG1, kappa, V domains shown)
VH: QVQLVQSGAEVKKPGASVKVSCKASGYTFTSFWITWVRQAPGQGLEWMGDIYPGGANTNYNEKLQGRVTLTVDTSTSTAYMELRSLRSDDTAVYYCARSPPQVGPFDYWGQGTLVTVSS
VL: DIQMTQSPSSLSASVGDRVTITCQASEYIINWLAWYQQKPGKAPKLLISGATGLETGVPSRFSGSGSGKDYTFTISSLQPEDIATYYCQQYWSIPWTFGQGTKLEIKR
B4: NEG315 (antibody, human IgG1, kappa, V domains shown)
VH: QVQLVQSGAEVKKPGASVKVSCKASGYTFTNYWITWVRQAPGQGLEWMGDFYPGGGNTNYNAKLQGRVTLTVDTSTSTAYMELRSLRSDDTAVYYCARSPPQVAPFDYWGQGTLVTVSS
VL: DIQMTQSPSSLSASVGDRVTITCQASEYIYNWLGWYQQKPGKAPKLLISGASGLETGVPSRFSGSGSGKDYTFTISSLQPEDIATYYCQQYWSTPWTFGQGTKLEIKR
B5: NEG313 (antibody, human IgG1, kappa, V domains shown)
VH: QVQLVQSGAEVKKPGASVKVSCKASGYTFNNYWITWVRQAPGQGLEWMGDFYPGGGSTNYNAKLQGRVTLTVDTSTSTAYMELRSLRSDDTAVYYCARSPPQVAPFDYWGQGTLVTVSS
VL: DIQMTQSPSSLSASVGDRVTITCQASDYIYHWLGWYQQKPGKAPKLLISGASGLETGVPSRFSGSGSGKDYTFTISSLQPEDIATYYCQQYWSTPWTFGQGTKLEIKR
B6: NEG310 (antibody, human IgG1, kappa, V domains shown)
VH: QVQLVQSGAEVKKPGASVKVSCKASGYTFTSYTMHWVRQAPGQGLEWMGYINPSSGYTKYNQKFQGRVTMTADKSTSTAYMELSSLRSEDTAVYYCAEGWLLLAMDYWGQGTLVTVSS
VL: EAVVTQSPATLSLSPGERATLSCRSSTGAVTTSNYAIWVQEKPGQAPRGLIGGTNNRAPGIPARFSGSLSGDDATLTISSLQPEDFAVYFCALWYSDHWVFGQGTKVEIKR

target: T1, Human ANGPTL4(26-161)-FLAG-His6-Avi (human); test: direct ELISA on MSD streptavidin plate, biotinylated antigen immobilized at 1 nM, antibody at 1 nM, Sulfo-tagged anti-human IgG detection

binding, binds:
B1
B2
B3
B4
B5
B6
